Measured values from PubChem BioAssay AID248 (DTP/NCI, 2004).
The list is a part of this screen's results and no random one: it is rich in T/C values a quarter to a half above the control, in often repeated tests (any T/C) and in doses without a T/C. Other doses and runs of a compound stand elsewhere. T/C gives the treated animals as a percentage of the vehicle group. Some doses have a count of surviving animals in place of a T/C: the source holds a T/C of zero for them, seemingly a mark for toxic or unscored doses. Some survivor counts are full or nearly so, which does not show that the dose was tolerated: the source hardly ever lists a survival T/C far under the control, and the zero likely stands for such cases as well. Survivors were counted at the toxicity check, usually on the fifth day, unless a day is given; later deaths do not show. Schedule codes are those of the source, taken here to give the interval after Q, in days (D) or hours (H), and the number of doses after X. Some entries hold several experiments; their values stand side by side, smallest first. Counts like (3×) give the number of equal values in this list. Some schedule codes hold Z or #, which are not explained here. Some structures stand for samples that the source files as different forms (salt, stereo form or complex); doses refer to the form tested. For survival time, this PubChem deposit counts one and a half times the control or more as active, and values a quarter to a half above the control carry no call in these data; other NCI protocols may use other cut-offs. Some T/C values are followed by the survivors on the day toxicity was checked, most often the fifth; where none is given, no animal had died by that day.

Test system: L1210 leukemia ip in BDF1 mice, survival T/C
Assay: NCI In Vivo Anticancer Drug Screen. Data for tumor model L1210 Leukemia (intraperitoneal) in B6D2F1 (BDF1) mice
Conditions: T/C endpoint: mean survival time, higher T/C = longer survival
[1] = dose: 400.0 mg/kg/injection, schedule: Q04DX003 (ip), vehicle: Klucel (hydroxypropylcellulose) (HPC)
[2] = dose: 400.0 mg/kg/injection, schedule: Q01DX001 (ip), vehicle: saline
[3] = dose: 66.0 mg/kg/injection, schedule: Q01DX009 (ip), vehicle: saline
[4] = dose: 75.0 mg/kg/injection, schedule: Q01DX001 (ip), vehicle: saline
[5] = dose: 100.0 mg/kg/injection, schedule: Q01DX001 (ip), vehicle: saline
[6] = dose: 100.0 mg/kg/injection, schedule: Q01DX009 (ip), vehicle: saline
[7] = dose: 150.0 mg/kg/injection, schedule: Q01DX001 (ip), vehicle: saline
[8] = dose: 200.0 mg/kg/injection, schedule: Q01DX001 (ip), vehicle: saline
[9] = dose: 400.0 mg/kg/injection, schedule: Q04DX003 (ip), vehicle: saline with Tween-80
[10] = dose: 100.0 mg/kg/injection, schedule: Q04DX003 (ip), vehicle: saline with Tween-80
[11] = dose: 200.0 mg/kg/injection, schedule: Q04DX003 (ip), vehicle: saline with Tween-80

For `[N-]=[N+]=C1C(Cl)=C(Cl)C(Cl)=C1Cl`, the survivor count (dose: 300.0 mg/kg/injection, schedule: Q01DX001 (ip), vehicle: other) was 3 of 6.
For `CON(C)C(=O)CCN1CC1`, the survivor count (dose: 200.0 mg/kg/injection, schedule: Q04DX003 (ip), vehicle: saline) was 3 of 6 and the survivor count (dose: 400.0 mg/kg/injection, schedule: Q04DX003 (ip), vehicle: saline) was 0 of 6.
With `CC1(C)N=C(N)N=C(N)N1c1cccc(C#N)c1` the T/C (dose: 16.0 mg/kg/injection, schedule: Q01DX009 (ip), vehicle: saline) was 130 % of control, the T/C (dose: 24.0 mg/kg/injection, schedule: Q01DX009 (ip), vehicle: saline) was 136 % of control and the T/C (dose: 56.3 mg/kg/injection, schedule: Q01DX009 (ip), vehicle: saline) was 125 % of control. For the same compound, the T/C (dose: 84.5 mg/kg/injection, schedule: Q01DX009 (ip), vehicle: saline) was 127 % of control, the survivor count (dose: 126.0 mg/kg/injection, schedule: Q01DX009 (ip), vehicle: saline) was 4 of 6 and the T/C (dose: 126.75 mg/kg/injection, schedule: Q01DX009 (ip), vehicle: saline) was 131 % of control [5 of 6 alive].
In the case of `CCCCCCCCCCCCCCCc1cc(=O)n(-c2ccc(NC(=O)/C=C/C(=O)O)cc2)n1C`, the survivor count [1] is reported as 3 of 6.
For `CC(=O)/C(=C\c1ccc(N(C)C)cc1)C(C)=[N+](C)C(=O)c1c(/[N+](C)=C(C)\C(=C\c2ccc(N(C)C)cc2)C(C)=O)ncn1C`, the survivor count [2] was 0 of 3.
With `CC1CN1P(=O)(N1CC1C)N1CC1C` (stereo not given) the T/C (dose: 8.8 mg/kg/injection, schedule: Q01DX009 (ip), vehicle: saline) was 126 % of control, the T/C (dose: 20.0 mg/kg/injection, schedule: Q01DX009 (ip), vehicle: saline) was 134 % of control and the T/C (dose: 29.0 mg/kg/injection, schedule: Q01DX009 (ip), vehicle: saline, evaluated on day 30) was 130 % of control. For the same compound, the T/C (dose: 29.0 mg/kg/injection, schedule: Q01DX009 (ip), vehicle: saline, run until all animals had died) was 138 % of control, the T/C (dose: 44.0 mg/kg/injection, schedule: Q01DX001 (ip), vehicle: saline) was 128 % of control and the T/C [3] was 130 % of control. The survivor count [3] was 6 of 6, the T/C [4] was 139 % of control and the T/C [5] was 143 % of control. For the same compound, the survivor count [5] was 6 of 6, the survivor count [6] was 5 of 6 and the survivor count [7] was 5 of 6. The survivor count (dose: 150.0 mg/kg/injection, schedule: Q01DX009 (ip), vehicle: saline) was 5 of 6, the survivor count [8] was 0 of 4 and the survivor count (dose: 225.0 mg/kg/injection, schedule: Q01DX009 (ip), vehicle: saline) was 5 of 6. The survivor count (dose: 300.0 mg/kg/injection, schedule: Q01DX001 (ip), vehicle: saline) was 3 of 4 and the survivor count [2] was 1 of 4.
For `O=C(/C=C/c1ccncc1)c1cccc2ccccc12`, the survivor count [9] was 3 of 6.
In the case of `COc1ccc(CC2c3cc(OC)c(OC)cc3CC[N+]2(C)C)cc1OC` (stereo not given), the survivor count (dose: 100.0 mg/kg/injection, schedule: Q01DX001 (ip), vehicle: Klucel (hydroxypropylcellulose) (HPC)) is reported as 2 of 6 and the survivor count (dose: 200.0 mg/kg/injection, schedule: Q01DX001 (ip), vehicle: Klucel (hydroxypropylcellulose) (HPC)) is reported as 0 of 6.
`CC(=O)[O][Hg][c]1s[c]([Hg][O]C(C)=O)[c]([Hg][O]C(C)=O)[c]1[Hg][O]C(C)=O` was tested, and the survivor count [10] was 1 of 6, the survivor count [11] was 0 of 6 and the survivor count [9] was 0 of 6.
In the case of `Nc1cc(=O)[nH][nH]1`, the T/C (dose: 450.0 mg/kg/injection, schedule: Q01DX Z (ip), vehicle: saline) is reported as 137 % of control [5 of 6 alive] and the T/C (dose: 675.0 mg/kg/injection, schedule: Q01DX Z (ip), vehicle: carboxymethylcellulose (CMC)) is reported as 129 % of control.
With `CN1CCCCC(c2ccccc2)(c2ccccc2)C1=N` the survivor count [4] was 0 of 6 and the survivor count [7] was 0 of 6.
`Cc1ccc(S(=O)(=O)N/N=C2\CC3(Cl)CCC2C3)cc1` (stereo not given) was tested, and the survivor count (dose: 400.0 mg/kg/injection, schedule: Q01DX009 (ip), vehicle: saline with Tween-80) was 6 of 6.
`CN1C(=O)C(Cl)=C(Cl)C1=O` was tested, and the survivor count (dose: 6.25 mg/kg/injection, schedule: Q04DX003 (ip), vehicle: saline with Tween-80) was 5 of 6, the survivor count (dose: 12.5 mg/kg/injection, schedule: Q04DX003 (ip), vehicle: saline with Tween-80) was 2 of 6 and the survivor count (dose: 25.0 mg/kg/injection, schedule: Q04DX003 (ip), vehicle: saline with Tween-80) was 0 of 6 (2×). The survivor count (dose: 50.0 mg/kg/injection, schedule: Q04DX003 (ip), vehicle: saline with Tween-80) was 0 of 6, the survivor count [10] was 0 of 6 and the survivor count [11] was 0 of 6. The survivor count [9] was 0 of 6.
In the case of `COc1c(N)cc2c(c1C)OC(C)(C)C=C2`, the survivor count (dose: 100.0 mg/kg/injection, schedule: Q01DX009 (ip), vehicle: saline with Tween-80) is reported as 2 of 6, the survivor count [11] is reported as 3 of 6 and the survivor count [9] is reported as 0 of 6 and 1 of 6.
With `O=C(Nc1cccc(C2=NCCN2)c1)c1ccc(C(=O)Nc2cccc(C3=NCCN3)c2)c([N+](=O)[O-])c1` the survivor count (dose: 10.0 mg/kg/injection, schedule: Q01DX Z (ip), vehicle: saline) was 0 of 6, the survivor count (dose: 15.0 mg/kg/injection, schedule: Q01DX Z (ip), vehicle: methylcellulose (MC)) was 1 of 6 and the survivor count (dose: 30.0 mg/kg/injection, schedule: Q01DX Z (ip), vehicle: methylcellulose (MC)) was 0 of 6. For the same compound, the survivor count (dose: 60.0 mg/kg/injection, schedule: Q01DX Z (ip), vehicle: methylcellulose (MC)) was 0 of 6.
`Cc1cc(C(=O)NNC(C)Cc2ccccc2)no1` (stereo not given) was tested, and the survivor count (dose: 75.0 mg/kg/injection, schedule: Q01DX009 (ip), vehicle: Klucel (hydroxypropylcellulose) (HPC)) was 5 of 6.
For `C1CN(P2(N3CC3)=NP(N3CC3)(N3CC3)=NP(N3CC3)(N3CC3)=N2)CCO1` (stereo not given), the T/C (dose: 12.5 mg/kg/injection, schedule: Q01DX009 (ip), vehicle: saline) was 138 % of control, the T/C (dose: 25.0 mg/kg/injection, schedule: Q01DX009 (ip), vehicle: saline) was 146 % of control and the T/C (dose: 50.0 mg/kg/injection, schedule: Q01DX001 (ip), vehicle: saline, evaluated on day 30) was 130 % of control. For the same compound, the T/C (dose: 50.0 mg/kg/injection, schedule: Q01DX001 (ip), vehicle: saline, evaluated on day 60) was 140 % of control, the survivor count [6] was 10 of 10 and 6 of 6 and the survivor count [8] was 1 of 6. The survivor count (dose: 200.0 mg/kg/injection, schedule: Q01DX009 (ip), vehicle: saline) was 2 of 6, 5 of 10, 4 of 6, the survivor count [2] was 0 of 6 and 10 of 10 and the survivor count (dose: 400.0 mg/kg/injection, schedule: Q01DX009 (ip), vehicle: saline) was 5 of 6.
For `CC/C=C(/C#N)CC`, the survivor count (dose: 400.0 mg/kg/injection, schedule: Q04DX002 (ip), vehicle: saline with Tween-80) was 1 of 3.
With `N#CCc1ccc(NN)cc1` the survivor count (dose: 300.0 mg/kg/injection, schedule: Q01DX009 (ip), vehicle: other) was 0 of 6.
`CCOC(=O)c1cc(C)n(-c2ccc(C(=O)O)cc2)c1C` was tested, and the survivor count [1] was 0 of 6.
`O=C(ONC1CCC(CC2CCCCC2)CC1)c1ccccc1` (stereo not given) was tested, and the survivor count (dose: 200.0 mg/kg/injection, schedule: Q01DX009 (ip), vehicle: Klucel (hydroxypropylcellulose) (HPC)) was 2 of 6 and the survivor count [1] was 0 of 6.
For `CCN(CC)CCCNC(c1ccccc1)C(Cl)(Cl)Cl` (stereo not given), the survivor count [8] was 1 of 4 and the survivor count [2] was 0 of 4.
`CCCCNC(=NC)c1ccc(NC(=O)Nc2ccc(NC(=O)Nc3ccc(C(=NC)NCCCC)cc3)cc2)cc1` was tested, and the survivor count (dose: 7.8 mg/kg/injection, schedule: Q01DX Z (ip), vehicle: methylcellulose (MC)) was 0 of 6, the survivor count (dose: 15.6 mg/kg/injection, schedule: Q01DX Z (ip), vehicle: methylcellulose (MC)) was 0 of 6 and 3 of 6 and the survivor count (dose: 31.2 mg/kg/injection, schedule: Q01DX Z (ip), vehicle: methylcellulose (MC)) was 0 of 6. For the same compound, the survivor count (dose: 62.5 mg/kg/injection, schedule: Q01DX Z (ip), vehicle: methylcellulose (MC)) was 0 of 6 and the survivor count (dose: 125.0 mg/kg/injection, schedule: Q01DX Z (ip), vehicle: methylcellulose (MC)) was 0 of 6.
